PubChem BioAssay AID1259405 – NCATS | 2018

Aim: 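Mouse-designed siRNAs used to find CHO productivity engineering targets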 (primary screen)
Cells: Chinese hamster CHO-K1 ovary cells with stable secreted eGFP expression
Reagent: single siRNA against mouse genes, 0.8 pmol siRNA per well (2 µl of 400 nM stock)
Duration: 3 days
Detection: 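Percent of the per-plate non-targeting control median for intracellular GFP per well by laser scanning cytometry and for cell viability by ATP luminescence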
Scale: GFP, % of control: higher = more GFP per well, higher productivity; viability (ATP), % of control: higher = more viable cells (more ATP)
Call rule: 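Called active when intracellular GFP, relative to negative control, is at or above 120%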
The whole screen tested about 50,000 reagents; below is a random part of them. About 4,000 of all reagents (8%) were called active. 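Mouse siRNA library applied to hamster cells; one well for each siRNA.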 Unmarked entries are inactive. Reagents against one gene are numbered here.

Ugt1a9 (GeneID 394434) #1
- GFP, % of control: 107
- viability (ATP), % of control: 73.5

Ugt1a9 (GeneID 394434) #2
- GFP, % of control: 107
- viability (ATP), % of control: 107

Ugt1a9 (GeneID 394434) #3
- GFP, % of control: 41.8
- viability (ATP), % of control: 61.5

Utp3 (GeneID 65961) #1
- GFP, % of control: 73.3
- viability (ATP), % of control: 51.6

Utp3 (GeneID 65961) #2
- GFP, % of control: 83.8
- viability (ATP), % of control: 82.9

Utp3 (GeneID 65961) #3
- GFP, % of control: 59.1
- viability (ATP), % of control: 66.2

Ppfibp2 (GeneID 19024) #1
- GFP, % of control: 70.7
- viability (ATP), % of control: 42.5

Ppfibp2 (GeneID 19024) #2
- GFP, % of control: 87.2
- viability (ATP), % of control: 74

Ppfibp2 (GeneID 19024) #3
- GFP, % of control: 90.5
- viability (ATP), % of control: 70.5

Crybb1 (GeneID 12960) #1
- GFP, % of control: 152 (active)
- viability (ATP), % of control: 72.6

Crybb1 (GeneID 12960) #2
- GFP, % of control: 51.4
- viability (ATP), % of control: 62.8

Crybb1 (GeneID 12960) #3
- GFP, % of control: 143 (active)
- viability (ATP), % of control: 123

Rhbdl1 (GeneID 214951) #1
- GFP, % of control: 64.3
- viability (ATP), % of control: 77.5

Rhbdl1 (GeneID 214951) #2
- GFP, % of control: 74.5
- viability (ATP), % of control: 25.1

Rhbdl1 (GeneID 214951) #3
- GFP, % of control: 55.8
- viability (ATP), % of control: 58.7

Or5ac23 (GeneID 257881) #1
- GFP, % of control: 55.5
- viability (ATP), % of control: 65.2

Or5ac23 (GeneID 257881) #2
- GFP, % of control: 74.2
- viability (ATP), % of control: 51

Or5ac23 (GeneID 257881) #3
- GFP, % of control: 53.4
- viability (ATP), % of control: 84.8

Slc15a2 (GeneID 57738) #1
- GFP, % of control: 60
- viability (ATP), % of control: 64.8

Slc15a2 (GeneID 57738) #2
- GFP, % of control: 43.9
- viability (ATP), % of control: 67

Slc15a2 (GeneID 57738) #3
- GFP, % of control: 112
- viability (ATP), % of control: 86.1

Olfml2a (GeneID 241327) #1
- GFP, % of control: 158 (active)
- viability (ATP), % of control: 87.7

Olfml2a (GeneID 241327) #2
- GFP, % of control: 95.6
- viability (ATP), % of control: 91.2

Olfml2a (GeneID 241327) #3
- GFP, % of control: 102
- viability (ATP), % of control: 69.8

Comtd1 (GeneID 69156) #1
- GFP, % of control: 91.4
- viability (ATP), % of control: 100

Comtd1 (GeneID 69156) #2
- GFP, % of control: 137 (active)
- viability (ATP), % of control: 164

Comtd1 (GeneID 69156) #3
- GFP, % of control: 102
- viability (ATP), % of control: 103

Nkx2-2 (GeneID 18088) #1
- GFP, % of control: 80
- viability (ATP), % of control: 71.2

Nkx2-2 (GeneID 18088) #2
- GFP, % of control: 57.2
- viability (ATP), % of control: 62.8

Nkx2-2 (GeneID 18088) #3
- GFP, % of control: 43.6
- viability (ATP), % of control: 62.1

Snx24 (GeneID 69226) #1
- GFP, % of control: 62.4
- viability (ATP), % of control: 53

Snx24 (GeneID 69226) #2
- GFP, % of control: 64.4
- viability (ATP), % of control: 73.1

Snx24 (GeneID 69226) #3
- GFP, % of control: 72.8
- viability (ATP), % of control: 59

Abca1 (GeneID 11303) #1
- GFP, % of control: 86.9
- viability (ATP), % of control: 79.2

Abca1 (GeneID 11303) #2
- GFP, % of control: 89.2
- viability (ATP), % of control: 92.9

Abca1 (GeneID 11303) #3
- GFP, % of control: 112
- viability (ATP), % of control: 75.8

Scn2b (GeneID 72821) #1
- GFP, % of control: 109
- viability (ATP), % of control: 87.4

Scn2b (GeneID 72821) #2
- GFP, % of control: 74.6
- viability (ATP), % of control: 59.4

Scn2b (GeneID 72821) #3
- GFP, % of control: 370 (active)
- viability (ATP), % of control: 111

Ppl (GeneID 19041) #1
- GFP, % of control: 117
- viability (ATP), % of control: 99.9

Ppl (GeneID 19041) #2
- GFP, % of control: 95.1
- viability (ATP), % of control: 73.4

Ppl (GeneID 19041) #3
- GFP, % of control: 109
- viability (ATP), % of control: 102

Laid out differently: results already given.
| target | siRNA no. | GFP, % of control | viability (ATP), % of control |
| --- | --- | --- | --- |
| Rhbdl1 (GeneID 214951) | 1 | 64.3 | 77.5 |
| Rhbdl1 (GeneID 214951) | 2 | 74.5 | 25.1 |
| Rhbdl1 (GeneID 214951) | 3 | 55.8 | 58.7 |
| Or5ac23 (GeneID 257881) | 1 | 55.5 | 65.2 |
